Reference: paper PMC8112867
Results are given in words; binding and its absence hold for the method and conditions named. Binding seen in cells or lysates may run through a third protein. Some entries that bind do so weakly or less than the wild type. Where a sequence is shown, tags or fusion partners need not be part of it.

Amino acid sequences for entries named in this document (tags omitted).
UniProt Q8R3S6, whole entry: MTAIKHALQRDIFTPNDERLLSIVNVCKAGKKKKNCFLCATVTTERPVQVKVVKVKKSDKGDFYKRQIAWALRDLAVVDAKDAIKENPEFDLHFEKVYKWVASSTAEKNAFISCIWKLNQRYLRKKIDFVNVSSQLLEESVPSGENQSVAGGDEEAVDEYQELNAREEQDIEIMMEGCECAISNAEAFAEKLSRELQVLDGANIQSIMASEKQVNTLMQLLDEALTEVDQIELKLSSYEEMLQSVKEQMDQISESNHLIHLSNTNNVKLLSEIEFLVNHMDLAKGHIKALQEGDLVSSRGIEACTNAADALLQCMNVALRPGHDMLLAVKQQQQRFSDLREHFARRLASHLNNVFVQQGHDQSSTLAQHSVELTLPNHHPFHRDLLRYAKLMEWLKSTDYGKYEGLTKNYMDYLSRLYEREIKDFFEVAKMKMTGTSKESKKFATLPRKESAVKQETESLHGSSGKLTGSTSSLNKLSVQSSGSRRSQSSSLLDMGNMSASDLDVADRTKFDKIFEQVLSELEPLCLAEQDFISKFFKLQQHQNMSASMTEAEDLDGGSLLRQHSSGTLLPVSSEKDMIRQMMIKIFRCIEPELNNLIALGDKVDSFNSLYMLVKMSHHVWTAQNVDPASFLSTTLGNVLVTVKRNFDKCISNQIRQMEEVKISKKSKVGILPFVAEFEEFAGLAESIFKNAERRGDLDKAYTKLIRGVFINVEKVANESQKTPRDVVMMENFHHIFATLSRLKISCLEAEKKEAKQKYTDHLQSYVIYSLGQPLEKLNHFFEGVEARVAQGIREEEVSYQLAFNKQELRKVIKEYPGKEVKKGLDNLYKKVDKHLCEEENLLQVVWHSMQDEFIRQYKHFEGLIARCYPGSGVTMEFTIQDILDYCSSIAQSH

T1: HA-tagged mouse STX2 (mouse) (UniProt Q00262)
T1 sequence: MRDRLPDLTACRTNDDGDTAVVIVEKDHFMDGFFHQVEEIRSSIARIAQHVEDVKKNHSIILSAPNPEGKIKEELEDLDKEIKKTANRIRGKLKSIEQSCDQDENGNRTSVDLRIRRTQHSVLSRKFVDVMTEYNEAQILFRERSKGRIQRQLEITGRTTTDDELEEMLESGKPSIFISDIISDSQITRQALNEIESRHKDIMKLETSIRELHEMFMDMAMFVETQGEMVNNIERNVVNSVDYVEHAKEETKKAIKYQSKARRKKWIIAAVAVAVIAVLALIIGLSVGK

T2: Myc-tagged mouse SNAP23 (mouse) (UniProt O09044)
T2 sequence: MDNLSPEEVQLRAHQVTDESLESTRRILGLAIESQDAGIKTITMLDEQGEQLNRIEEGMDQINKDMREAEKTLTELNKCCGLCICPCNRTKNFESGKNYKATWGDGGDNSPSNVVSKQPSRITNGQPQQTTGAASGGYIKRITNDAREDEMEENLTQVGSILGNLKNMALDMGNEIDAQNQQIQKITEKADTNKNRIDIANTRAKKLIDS

B1: HA-tagged mouse STX2 (protein, UniProt Q00262 1-289)
chain: MRDRLPDLTACRTNDDGDTAVVIVEKDHFMDGFFHQVEEIRSSIARIAQHVEDVKKNHSIILSAPNPEGKIKEELEDLDKEIKKTANRIRGKLKSIEQSCDQDENGNRTSVDLRIRRTQHSVLSRKFVDVMTEYNEAQILFRERSKGRIQRQLEITGRTTTDDELEEMLESGKPSIFISDIISDSQITRQALNEIESRHKDIMKLETSIRELHEMFMDMAMFVETQGEMVNNIERNVVNSVDYVEHAKEETKKAIKYQSKARRKKWIIAAVAVAVIAVLALIIGLSVGK
B2: Myc-tagged mouse SNAP23 (protein, UniProt O09044 1-210)
chain: MDNLSPEEVQLRAHQVTDESLESTRRILGLAIESQDAGIKTITMLDEQGEQLNRIEEGMDQINKDMREAEKTLTELNKCCGLCICPCNRTKNFESGKNYKATWGDGGDNSPSNVVSKQPSRITNGQPQQTTGAASGGYIKRITNDAREDEMEENLTQVGSILGNLKNMALDMGNEIDAQNQQIQKITEKADTNKNRIDIANTRAKKLIDS

Tests used:
Assay in all cases: co-IP; FLAG-EXOC1, HA-STX2 and Myc-SNAP23 co-overexpressed together in HEK293T cells, 24 hr; lysis buffer 20 mM Tris-HCl, 150 mM NaCl, 1 mM EDTA, 1% triton X-100, protease inhibitors; immunoprecipitation with HA-, DDDDK- and c-Myc-tagged protein purification kits, each protein immunoprecipitated in turn; western blot
[1] = molecular target: T1, HA-tagged mouse STX2 (mouse)
[2] = molecular target: T2, Myc-tagged mouse SNAP23 (mouse)
[3] = molecular target: FLAG-tagged mouse EXOC1 (mouse) (UniProt Q8R3S6)

Molecule	binding [1]	binding [2]	binding [3]
FLAG-tagged mouse EXOC1 (from UniProt Q8R3S6 1-894)	binds	binds	–
B1	–	binds	binds
B2	binds	–	binds
